Results on three substances are retold here after article PMC6753473.

These are yes or no findings as the source states them, for the method shown. In cells and extracts the contact can be indirect. Binding calls can cover weak binding; strength is not graded here.

For the assay, the target named is GFP-tagged CAF1* catalytic mutant (DExAA) (UniProt Q9UIV1). The experiment in a line: co-IP; GFP-CAF1 or GFP-CAF1* expressed in HEK293T cells, immunoprecipitated with anti-GFP antibody; precipitates incubated on ice with 12 μM purified MBP or MBP-tagged CIR for 10 min, washed, western blot of endogenous CCR4–NOT subunits. On the technique in general: A western blot detects proteins with antibodies after separation by electrophoresis.

“endogenous CCR4a (from UniProt Q9ULM6 1-557) (enzyme)”: the binding entry is on record as “binds”. Take “endogenous NOT2 (from UniProt Q9NZN8 1-540)”: the binding result is listed as “binds”. To “endogenous NOT3 (from UniProt O75175 1-753)” belongs “binds”.
